Our source for the binding values is publication PMC5135769.

By UniProt entry, the sequences of proteins in these tests, tags left out.
UniProt Q5SRE5: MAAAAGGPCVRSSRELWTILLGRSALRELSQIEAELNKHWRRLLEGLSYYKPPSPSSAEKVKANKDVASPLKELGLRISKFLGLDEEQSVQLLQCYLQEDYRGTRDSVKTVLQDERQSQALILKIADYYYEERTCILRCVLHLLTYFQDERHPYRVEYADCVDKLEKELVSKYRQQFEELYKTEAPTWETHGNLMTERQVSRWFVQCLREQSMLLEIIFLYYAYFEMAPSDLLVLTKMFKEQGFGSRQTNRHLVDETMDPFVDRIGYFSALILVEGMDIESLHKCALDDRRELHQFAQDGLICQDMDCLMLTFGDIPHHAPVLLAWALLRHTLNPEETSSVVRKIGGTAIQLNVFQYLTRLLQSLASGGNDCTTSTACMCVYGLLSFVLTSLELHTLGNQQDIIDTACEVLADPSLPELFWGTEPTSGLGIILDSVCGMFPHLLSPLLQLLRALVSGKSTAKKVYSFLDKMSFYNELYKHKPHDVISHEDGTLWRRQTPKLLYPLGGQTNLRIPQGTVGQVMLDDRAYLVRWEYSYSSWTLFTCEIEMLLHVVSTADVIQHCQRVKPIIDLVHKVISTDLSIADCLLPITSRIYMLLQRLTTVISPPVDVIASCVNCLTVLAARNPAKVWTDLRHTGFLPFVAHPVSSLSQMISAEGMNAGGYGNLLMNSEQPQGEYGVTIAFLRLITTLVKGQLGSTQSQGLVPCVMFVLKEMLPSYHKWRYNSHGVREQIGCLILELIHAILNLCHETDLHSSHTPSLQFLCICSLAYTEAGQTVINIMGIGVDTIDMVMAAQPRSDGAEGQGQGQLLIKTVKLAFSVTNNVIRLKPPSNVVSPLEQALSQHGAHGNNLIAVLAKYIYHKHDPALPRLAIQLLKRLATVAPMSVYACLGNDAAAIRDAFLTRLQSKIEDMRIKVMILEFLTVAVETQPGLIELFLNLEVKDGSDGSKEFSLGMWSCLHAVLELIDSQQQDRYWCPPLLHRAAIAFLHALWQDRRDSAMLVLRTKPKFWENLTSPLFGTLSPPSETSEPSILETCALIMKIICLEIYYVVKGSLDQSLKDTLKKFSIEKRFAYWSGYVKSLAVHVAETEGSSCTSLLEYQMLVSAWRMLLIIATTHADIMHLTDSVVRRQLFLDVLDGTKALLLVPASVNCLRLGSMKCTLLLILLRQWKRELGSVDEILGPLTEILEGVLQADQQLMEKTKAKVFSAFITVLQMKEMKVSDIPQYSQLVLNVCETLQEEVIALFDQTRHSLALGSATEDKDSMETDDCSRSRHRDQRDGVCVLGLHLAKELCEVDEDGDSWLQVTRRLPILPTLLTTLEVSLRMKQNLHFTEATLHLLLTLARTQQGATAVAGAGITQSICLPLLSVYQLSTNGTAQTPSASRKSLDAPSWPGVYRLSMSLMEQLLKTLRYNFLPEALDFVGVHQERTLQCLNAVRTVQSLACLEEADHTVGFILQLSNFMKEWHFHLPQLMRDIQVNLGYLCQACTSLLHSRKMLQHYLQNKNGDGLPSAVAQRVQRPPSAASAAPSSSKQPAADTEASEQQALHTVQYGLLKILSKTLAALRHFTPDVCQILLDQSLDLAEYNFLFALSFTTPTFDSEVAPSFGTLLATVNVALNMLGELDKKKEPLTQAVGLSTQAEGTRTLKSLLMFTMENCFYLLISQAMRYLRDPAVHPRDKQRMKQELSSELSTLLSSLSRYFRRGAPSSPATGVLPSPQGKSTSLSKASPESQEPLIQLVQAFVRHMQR
UniProt Q92621: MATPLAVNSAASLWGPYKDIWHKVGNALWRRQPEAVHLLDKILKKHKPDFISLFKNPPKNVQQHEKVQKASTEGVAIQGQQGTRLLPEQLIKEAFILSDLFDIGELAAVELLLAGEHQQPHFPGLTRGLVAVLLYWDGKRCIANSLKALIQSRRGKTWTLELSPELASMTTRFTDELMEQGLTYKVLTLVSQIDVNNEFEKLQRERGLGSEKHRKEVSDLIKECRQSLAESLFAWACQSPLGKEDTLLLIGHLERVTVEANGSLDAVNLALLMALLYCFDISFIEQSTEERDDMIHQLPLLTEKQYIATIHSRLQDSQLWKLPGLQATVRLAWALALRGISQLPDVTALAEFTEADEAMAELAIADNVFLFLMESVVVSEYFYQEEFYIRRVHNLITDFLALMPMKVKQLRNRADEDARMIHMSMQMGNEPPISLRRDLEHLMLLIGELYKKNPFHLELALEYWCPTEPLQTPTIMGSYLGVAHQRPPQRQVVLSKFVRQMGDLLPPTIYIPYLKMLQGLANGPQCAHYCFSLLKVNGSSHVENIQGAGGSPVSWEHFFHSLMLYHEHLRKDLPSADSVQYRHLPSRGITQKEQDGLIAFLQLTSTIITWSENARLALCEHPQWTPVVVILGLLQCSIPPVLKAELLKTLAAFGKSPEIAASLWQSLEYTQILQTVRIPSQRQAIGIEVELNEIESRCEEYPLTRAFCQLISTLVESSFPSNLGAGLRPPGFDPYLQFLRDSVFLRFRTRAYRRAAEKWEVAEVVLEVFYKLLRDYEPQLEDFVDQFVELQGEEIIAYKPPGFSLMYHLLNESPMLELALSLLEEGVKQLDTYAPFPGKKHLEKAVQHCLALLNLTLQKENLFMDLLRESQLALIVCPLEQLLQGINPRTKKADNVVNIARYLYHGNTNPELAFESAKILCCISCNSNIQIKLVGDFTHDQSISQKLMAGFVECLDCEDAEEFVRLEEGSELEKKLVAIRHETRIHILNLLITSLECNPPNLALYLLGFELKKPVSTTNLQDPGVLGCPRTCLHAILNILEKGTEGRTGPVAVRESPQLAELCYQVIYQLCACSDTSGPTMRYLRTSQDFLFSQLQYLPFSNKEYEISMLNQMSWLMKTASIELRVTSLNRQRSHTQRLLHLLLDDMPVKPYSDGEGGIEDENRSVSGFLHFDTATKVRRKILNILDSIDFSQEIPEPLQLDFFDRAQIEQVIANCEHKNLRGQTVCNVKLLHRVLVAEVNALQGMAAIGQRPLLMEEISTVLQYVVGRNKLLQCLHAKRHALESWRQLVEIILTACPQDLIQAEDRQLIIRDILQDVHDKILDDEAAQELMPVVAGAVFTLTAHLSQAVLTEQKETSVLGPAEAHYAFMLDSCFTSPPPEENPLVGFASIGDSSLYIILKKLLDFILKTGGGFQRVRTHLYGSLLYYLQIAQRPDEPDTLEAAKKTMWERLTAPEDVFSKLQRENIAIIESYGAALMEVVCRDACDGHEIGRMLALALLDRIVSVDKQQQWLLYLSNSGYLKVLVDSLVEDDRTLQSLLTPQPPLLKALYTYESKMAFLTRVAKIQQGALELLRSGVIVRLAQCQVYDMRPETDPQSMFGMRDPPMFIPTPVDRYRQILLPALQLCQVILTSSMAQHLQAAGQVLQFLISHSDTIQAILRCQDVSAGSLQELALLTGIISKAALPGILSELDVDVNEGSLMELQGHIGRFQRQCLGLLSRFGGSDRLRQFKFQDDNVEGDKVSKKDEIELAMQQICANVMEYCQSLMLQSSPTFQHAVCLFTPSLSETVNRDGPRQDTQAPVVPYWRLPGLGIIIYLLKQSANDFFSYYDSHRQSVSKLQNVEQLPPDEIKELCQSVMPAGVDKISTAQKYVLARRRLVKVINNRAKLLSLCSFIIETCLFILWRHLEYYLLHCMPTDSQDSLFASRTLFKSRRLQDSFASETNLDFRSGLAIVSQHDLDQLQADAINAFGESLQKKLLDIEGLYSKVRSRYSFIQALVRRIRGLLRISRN

No constants are given. Whether binding was seen depends on the method and setting. In cells and extracts the contact can be indirect. Some entries that bind do so weakly or less than the wild type.

The target in assay [1] is T1, Nup93 (human (endogenous in DLD1)) (UniProt Q8N1F7).
T1 sequence: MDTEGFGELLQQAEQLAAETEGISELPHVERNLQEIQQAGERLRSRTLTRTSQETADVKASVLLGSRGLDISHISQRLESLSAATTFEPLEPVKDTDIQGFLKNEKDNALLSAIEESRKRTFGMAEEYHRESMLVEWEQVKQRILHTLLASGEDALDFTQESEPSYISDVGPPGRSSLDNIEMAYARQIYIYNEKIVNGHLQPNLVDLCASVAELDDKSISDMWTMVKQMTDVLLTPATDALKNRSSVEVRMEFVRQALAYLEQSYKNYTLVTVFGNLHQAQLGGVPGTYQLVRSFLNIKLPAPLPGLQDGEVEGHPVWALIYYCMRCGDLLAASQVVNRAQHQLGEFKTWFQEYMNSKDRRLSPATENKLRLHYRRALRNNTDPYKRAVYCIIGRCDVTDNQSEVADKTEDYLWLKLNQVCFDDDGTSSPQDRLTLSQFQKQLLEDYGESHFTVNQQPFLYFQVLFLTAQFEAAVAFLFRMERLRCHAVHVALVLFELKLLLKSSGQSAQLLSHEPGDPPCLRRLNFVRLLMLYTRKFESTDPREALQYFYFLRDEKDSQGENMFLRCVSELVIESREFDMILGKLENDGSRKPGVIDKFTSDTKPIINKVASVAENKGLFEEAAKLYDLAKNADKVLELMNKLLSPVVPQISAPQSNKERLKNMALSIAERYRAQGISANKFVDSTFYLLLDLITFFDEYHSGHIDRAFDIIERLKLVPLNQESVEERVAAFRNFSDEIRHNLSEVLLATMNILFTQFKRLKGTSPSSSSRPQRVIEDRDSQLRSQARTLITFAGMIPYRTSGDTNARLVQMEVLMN
The assay can be described thus: co-IP; IP with anti-Nup93 antibody from DLD1 whole-cell extracts, protein A dynabeads, Western blot; Co-IP buffer 50 mM Tris-HCl pH 8.0, 150 mM NaCl, 0.5% NP-40; also done in Nup205-depleted (siRNA) cells.

Assay [2] deals with Nup188 (human (endogenous in DLD1)) (UniProt Q5SRE5). The assay can be described thus: co-IP; reverse co-IP: IP with anti-Nup188 antibody from DLD1 whole-cell extracts, protein A dynabeads, Western blot; Co-IP buffer 50 mM Tris-HCl pH 8.0, 150 mM NaCl, 0.5% NP-40. In general terms: In western blotting, separated proteins are transferred to a membrane and probed.

With Nup205 (from UniProt Q92621 1-2012), the binding entry is listed as “binds” in assay [1] and “no binding” in assay [2].
